Data as given in the supplement of paper PMC10849652.
This is one part of the list.

By UniProt entry, the sequences of proteins in these tests, tags left out. Where a name states a change or a piece, a line headed by the entry shows the natural chain unless it says otherwise.
UniProt P13995: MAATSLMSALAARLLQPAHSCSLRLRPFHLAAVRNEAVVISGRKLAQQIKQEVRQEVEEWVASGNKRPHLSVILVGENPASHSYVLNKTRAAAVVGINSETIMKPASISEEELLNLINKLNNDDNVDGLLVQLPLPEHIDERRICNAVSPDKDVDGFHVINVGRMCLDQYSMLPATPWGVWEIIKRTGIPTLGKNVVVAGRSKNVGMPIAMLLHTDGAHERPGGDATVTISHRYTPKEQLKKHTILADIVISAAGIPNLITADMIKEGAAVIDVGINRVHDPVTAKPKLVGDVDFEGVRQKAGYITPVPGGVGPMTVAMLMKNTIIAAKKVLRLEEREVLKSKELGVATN
UniProt O00159, whole entry, looked up: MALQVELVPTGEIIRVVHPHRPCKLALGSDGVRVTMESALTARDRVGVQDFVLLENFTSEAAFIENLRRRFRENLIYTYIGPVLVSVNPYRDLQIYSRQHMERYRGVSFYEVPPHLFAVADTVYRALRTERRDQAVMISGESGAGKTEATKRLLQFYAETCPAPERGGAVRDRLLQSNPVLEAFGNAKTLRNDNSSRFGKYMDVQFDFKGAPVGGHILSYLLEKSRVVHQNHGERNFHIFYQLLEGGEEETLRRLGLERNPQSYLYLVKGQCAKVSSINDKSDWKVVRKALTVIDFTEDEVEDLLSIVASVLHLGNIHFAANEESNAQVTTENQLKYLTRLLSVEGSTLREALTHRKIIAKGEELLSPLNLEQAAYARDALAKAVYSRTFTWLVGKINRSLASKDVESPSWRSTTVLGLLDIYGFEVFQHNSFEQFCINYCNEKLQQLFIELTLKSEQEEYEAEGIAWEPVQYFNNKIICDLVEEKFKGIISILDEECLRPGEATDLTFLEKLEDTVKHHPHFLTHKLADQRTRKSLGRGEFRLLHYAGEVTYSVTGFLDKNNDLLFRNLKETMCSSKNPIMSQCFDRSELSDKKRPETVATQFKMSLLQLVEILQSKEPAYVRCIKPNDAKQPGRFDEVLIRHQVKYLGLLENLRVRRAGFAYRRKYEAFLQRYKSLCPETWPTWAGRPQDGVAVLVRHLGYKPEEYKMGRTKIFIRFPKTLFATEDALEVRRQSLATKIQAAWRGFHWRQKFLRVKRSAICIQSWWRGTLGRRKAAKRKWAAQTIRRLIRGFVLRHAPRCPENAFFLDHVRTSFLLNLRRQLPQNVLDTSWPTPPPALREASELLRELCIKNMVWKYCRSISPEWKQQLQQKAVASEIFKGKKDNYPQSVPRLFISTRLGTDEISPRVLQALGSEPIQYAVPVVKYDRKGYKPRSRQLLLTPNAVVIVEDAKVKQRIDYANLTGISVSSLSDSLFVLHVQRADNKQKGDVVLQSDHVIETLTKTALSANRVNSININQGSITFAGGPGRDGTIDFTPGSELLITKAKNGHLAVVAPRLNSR
UniProt P58546, whole entry, looked up: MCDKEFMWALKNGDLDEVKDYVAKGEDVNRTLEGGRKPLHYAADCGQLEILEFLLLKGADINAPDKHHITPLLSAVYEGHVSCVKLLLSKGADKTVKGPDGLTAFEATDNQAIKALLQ
UniProt Q969H8: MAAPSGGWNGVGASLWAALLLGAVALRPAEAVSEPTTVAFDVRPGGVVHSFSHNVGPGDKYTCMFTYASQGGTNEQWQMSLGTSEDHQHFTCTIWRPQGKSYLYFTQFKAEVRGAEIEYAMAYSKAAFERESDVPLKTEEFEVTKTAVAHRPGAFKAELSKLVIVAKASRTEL
UniProt Q86UE4: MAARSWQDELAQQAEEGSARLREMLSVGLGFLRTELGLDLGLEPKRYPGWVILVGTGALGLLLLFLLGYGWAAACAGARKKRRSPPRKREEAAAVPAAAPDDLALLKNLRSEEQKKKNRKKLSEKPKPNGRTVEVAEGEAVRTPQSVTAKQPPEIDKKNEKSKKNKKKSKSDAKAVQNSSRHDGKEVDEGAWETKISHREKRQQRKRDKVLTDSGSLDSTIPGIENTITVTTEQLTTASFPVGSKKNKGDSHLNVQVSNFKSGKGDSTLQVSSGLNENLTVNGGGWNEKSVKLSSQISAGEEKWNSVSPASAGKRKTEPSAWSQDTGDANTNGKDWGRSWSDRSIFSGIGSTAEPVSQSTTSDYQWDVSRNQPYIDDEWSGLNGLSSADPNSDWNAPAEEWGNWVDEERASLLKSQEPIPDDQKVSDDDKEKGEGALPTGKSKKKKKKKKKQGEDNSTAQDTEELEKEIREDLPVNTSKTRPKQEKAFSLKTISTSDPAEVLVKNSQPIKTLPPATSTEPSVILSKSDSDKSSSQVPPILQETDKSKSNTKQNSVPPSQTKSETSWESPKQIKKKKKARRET
UniProt P82909: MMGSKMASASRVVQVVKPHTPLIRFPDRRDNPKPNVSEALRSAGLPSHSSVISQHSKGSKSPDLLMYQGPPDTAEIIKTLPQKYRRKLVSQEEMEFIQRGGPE
UniProt Q96E11: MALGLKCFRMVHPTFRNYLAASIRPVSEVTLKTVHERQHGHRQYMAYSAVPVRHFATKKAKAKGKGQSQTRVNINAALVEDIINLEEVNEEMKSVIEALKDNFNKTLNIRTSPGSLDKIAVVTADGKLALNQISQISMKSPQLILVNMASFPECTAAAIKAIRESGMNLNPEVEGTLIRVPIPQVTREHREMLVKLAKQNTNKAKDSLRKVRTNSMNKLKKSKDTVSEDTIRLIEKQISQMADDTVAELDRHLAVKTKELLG
UniProt Q13614, whole entry, looked up: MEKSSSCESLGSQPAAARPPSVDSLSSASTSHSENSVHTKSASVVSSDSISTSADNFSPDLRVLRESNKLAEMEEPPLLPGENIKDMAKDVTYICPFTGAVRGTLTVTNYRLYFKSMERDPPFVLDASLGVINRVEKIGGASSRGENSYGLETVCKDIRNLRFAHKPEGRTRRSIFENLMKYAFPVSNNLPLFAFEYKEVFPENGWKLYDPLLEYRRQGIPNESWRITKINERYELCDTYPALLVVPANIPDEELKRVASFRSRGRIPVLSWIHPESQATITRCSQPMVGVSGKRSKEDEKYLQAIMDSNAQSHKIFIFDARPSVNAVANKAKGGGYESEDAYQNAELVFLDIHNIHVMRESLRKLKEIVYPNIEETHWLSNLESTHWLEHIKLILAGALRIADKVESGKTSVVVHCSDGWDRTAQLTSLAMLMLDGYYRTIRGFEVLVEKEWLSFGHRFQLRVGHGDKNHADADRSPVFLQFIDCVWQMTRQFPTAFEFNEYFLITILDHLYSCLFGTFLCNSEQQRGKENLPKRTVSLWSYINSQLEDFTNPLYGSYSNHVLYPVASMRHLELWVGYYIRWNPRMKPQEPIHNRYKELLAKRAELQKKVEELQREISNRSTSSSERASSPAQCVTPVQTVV
UniProt Q96S97: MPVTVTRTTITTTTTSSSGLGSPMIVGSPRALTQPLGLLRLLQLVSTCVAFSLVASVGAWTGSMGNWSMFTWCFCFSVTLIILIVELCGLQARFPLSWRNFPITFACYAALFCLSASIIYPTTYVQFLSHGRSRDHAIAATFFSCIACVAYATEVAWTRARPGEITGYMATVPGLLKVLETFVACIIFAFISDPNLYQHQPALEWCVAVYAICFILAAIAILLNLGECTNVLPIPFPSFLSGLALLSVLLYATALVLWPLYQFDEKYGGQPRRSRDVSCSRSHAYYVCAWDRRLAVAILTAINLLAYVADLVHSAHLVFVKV
UniProt Q99707: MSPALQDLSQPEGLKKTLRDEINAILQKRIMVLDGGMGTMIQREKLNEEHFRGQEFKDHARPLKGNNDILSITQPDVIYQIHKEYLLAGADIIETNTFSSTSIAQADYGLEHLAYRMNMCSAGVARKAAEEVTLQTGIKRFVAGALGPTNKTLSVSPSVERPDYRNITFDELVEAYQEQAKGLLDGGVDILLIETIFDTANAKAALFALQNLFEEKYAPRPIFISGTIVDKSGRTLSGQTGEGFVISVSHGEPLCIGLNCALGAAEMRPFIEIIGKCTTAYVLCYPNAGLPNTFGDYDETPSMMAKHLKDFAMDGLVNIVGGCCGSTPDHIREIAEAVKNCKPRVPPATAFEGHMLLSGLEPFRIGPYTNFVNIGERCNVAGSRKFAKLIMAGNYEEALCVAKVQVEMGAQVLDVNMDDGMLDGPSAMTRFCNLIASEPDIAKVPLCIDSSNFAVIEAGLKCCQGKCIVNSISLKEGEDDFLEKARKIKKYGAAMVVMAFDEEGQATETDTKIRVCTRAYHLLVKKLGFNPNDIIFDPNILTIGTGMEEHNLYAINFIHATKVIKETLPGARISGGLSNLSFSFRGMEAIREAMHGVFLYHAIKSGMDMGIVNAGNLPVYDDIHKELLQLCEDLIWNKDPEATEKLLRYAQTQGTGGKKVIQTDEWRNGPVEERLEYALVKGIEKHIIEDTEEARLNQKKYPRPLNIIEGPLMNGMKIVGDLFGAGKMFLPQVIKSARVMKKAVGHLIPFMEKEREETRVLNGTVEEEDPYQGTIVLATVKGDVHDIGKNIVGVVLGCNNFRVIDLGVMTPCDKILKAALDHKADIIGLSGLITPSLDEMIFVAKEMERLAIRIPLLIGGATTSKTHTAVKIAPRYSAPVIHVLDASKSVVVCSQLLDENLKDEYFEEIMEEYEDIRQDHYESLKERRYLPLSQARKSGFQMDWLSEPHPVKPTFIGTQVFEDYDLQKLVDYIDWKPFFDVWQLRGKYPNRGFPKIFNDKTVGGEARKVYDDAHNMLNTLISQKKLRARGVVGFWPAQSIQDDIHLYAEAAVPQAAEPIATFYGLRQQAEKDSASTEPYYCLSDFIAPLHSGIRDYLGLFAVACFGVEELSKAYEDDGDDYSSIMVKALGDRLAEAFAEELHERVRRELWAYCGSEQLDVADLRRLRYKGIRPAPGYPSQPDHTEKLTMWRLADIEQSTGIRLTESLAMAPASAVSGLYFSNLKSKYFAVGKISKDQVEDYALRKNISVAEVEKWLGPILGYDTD
UniProt P00156: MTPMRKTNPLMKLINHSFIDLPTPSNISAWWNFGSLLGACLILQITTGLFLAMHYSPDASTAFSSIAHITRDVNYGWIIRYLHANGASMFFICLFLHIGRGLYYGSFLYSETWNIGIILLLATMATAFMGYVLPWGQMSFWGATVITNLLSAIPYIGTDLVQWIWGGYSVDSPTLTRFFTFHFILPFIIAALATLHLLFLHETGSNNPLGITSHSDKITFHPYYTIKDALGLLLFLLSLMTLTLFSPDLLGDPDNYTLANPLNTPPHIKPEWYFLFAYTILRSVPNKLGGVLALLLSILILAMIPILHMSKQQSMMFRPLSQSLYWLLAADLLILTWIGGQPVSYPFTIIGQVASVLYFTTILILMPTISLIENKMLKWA
UniProt O94832: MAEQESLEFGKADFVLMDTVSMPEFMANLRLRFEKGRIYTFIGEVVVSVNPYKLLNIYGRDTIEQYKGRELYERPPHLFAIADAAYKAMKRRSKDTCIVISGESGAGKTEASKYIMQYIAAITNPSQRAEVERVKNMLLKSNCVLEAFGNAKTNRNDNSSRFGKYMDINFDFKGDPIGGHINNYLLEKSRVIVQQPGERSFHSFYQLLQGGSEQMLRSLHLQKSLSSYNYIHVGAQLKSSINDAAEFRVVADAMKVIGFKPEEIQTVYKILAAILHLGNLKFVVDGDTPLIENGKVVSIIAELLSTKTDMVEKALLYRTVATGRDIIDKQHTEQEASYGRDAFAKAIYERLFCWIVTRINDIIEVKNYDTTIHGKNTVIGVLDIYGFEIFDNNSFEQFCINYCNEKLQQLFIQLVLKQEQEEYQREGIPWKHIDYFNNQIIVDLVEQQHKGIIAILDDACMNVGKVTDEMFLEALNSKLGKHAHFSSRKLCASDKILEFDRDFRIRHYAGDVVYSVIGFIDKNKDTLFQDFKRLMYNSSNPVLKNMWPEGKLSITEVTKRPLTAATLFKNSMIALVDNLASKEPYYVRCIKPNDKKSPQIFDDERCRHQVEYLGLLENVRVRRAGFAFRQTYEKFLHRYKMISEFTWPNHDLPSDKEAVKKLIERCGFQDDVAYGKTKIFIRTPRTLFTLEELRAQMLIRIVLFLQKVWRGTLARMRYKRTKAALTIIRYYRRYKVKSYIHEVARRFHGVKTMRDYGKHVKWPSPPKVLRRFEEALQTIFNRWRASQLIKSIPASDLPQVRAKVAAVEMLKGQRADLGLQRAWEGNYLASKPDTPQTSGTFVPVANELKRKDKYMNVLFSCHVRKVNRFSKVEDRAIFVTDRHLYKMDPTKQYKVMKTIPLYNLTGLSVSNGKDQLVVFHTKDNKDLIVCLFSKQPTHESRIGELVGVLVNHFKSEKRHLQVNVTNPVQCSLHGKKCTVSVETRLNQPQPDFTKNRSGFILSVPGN

Columns and labels:
Experiment in all cases: log2 fold change, soluble protein after heating vs DMSO (PISA); higher = thermal stabilisation; K562 cells, 10 uM, 30 min; active = over 0.2 and 3.5 SD of the protein, either way, in both replicates (recomputed)
saracatinib = compound: CN1CCN(CCOc2cc(OC3CCOCC3)c3c(Nc4c(Cl)ccc5c4OCO5)ncnc3c2)CC1 [saracatinib]
How it was run: (§1)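 K562 cells at 2×10^6 cells/mL were treated for 30 min with 10 μM compound, and aliquots were heated for 3 min over 48°C-58°C before pooling. Extraction used PBS with 0.5% NP-40 at 4°C, and soluble protein was the supernatant after 21,000xg for 90 min, measured by TMTpro 16plex LC-MS/MS with channel sums equalised. Thermal stability values, relative to control samples and from duplicates, are log2 fold changes.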

sotrastaurin = compound: CN1CCN(c2nc(C3=C(c4c[nH]c5ccccc45)C(=O)NC3=O)c3ccccc3n2)CC1 [sotrastaurin]
How it was run: as §1

alvocidib = compound: CN1CC[C@H](c2c(O)cc(O)c3c(=O)cc(-c4ccccc4Cl)oc23)[C@H](O)C1 [alvocidib]
How it was run: as §1

Tubastatin A = compound: CN1CCc2c(c3ccccc3n2Cc2ccc(C(=O)NO)cc2)C1 [Tubastatin A]
How it was run: as §1

[1] = compound: CNC(=O)C1=CC=CC=C1NC2=NC(=NC=C2Cl)NC3=C(C=C(C=C3)N4CCOCC4)OC
How it was run: as §1

defactinib = compound: CNC(=O)c1ccc(Nc2ncc(C(F)(F)F)c(NCc3nccnc3N(C)S(C)(=O)=O)n2)cc1 [defactinib]
How it was run: as §1

rucaparib = compound: CNCc1ccc(-c2[nH]c3cc(F)cc4c3c2CCNC4=O)cc1 [rucaparib]
How it was run: as §1

[2] = compound: CNc1nc(-c2ccc3c(N)n[nH]c3c2)cc(N2C[C@@H](C(=O)NC3CCCCC3)CC[C@H]2C)n1
How it was run: as §1

encorafenib = compound: COC(=O)N[C@@H](C)CNc1nccc(-c2cn(C(C)C)nc2-c2cc(Cl)cc(NS(C)(=O)=O)c2F)n1 [encorafenib]
How it was run: as §1

[3] = compound: COC(=O)[C@H](CCSC)NC(=O)C1=C(C=C(C=C1)NC[C@H](CS)N)C2=CC=CC=C2
How it was run: as §1

[4] = compound: COC1=CC=C(C=C1)CN2C=CC3=C2C=C(C=C3)C(=O)NO
How it was run: as §1

filanesib = compound: CON(C)C(=O)N1N=C(c2cc(F)ccc2F)S[C@@]1(CCCN)c1ccccc1 [filanesib]
How it was run: as §1

zotarolimus = compound: CO[C@H]1C[C@@H]2CC[C@@H](C)[C@@](O)(O2)C(=O)C(=O)N2CCCC[C@H]2C(=O)O[C@H]([C@H](C)C[C@@H]2CC[C@H](n3cnnn3)[C@H](OC)C2)CC(=O)[C@H](C)/C=C(\C)[C@@H](O)[C@@H](OC)C(=O)[C@H](C)C[C@H](C)/C=C/C=C/C=C/1C [zotarolimus]
How it was run: as §1

idasanutlin = compound: COc1cc(C(=O)O)ccc1NC(=O)[C@@H]1N[C@@H](CC(C)(C)C)[C@](C#N)(c2ccc(Cl)cc2F)[C@H]1c1cccc(Cl)c1F [idasanutlin]
How it was run: as §1

alisertib = compound: COc1cc(Nc2ncc3c(n2)-c2ccc(Cl)cc2C(c2c(F)cccc2OC)=NC3)ccc1C(=O)O [alisertib]
How it was run: as §1

[5] = compound: COc1cc2nc(-c3cc(F)ccc3O)nc(N[C@@H]3CNC[C@H]3C(C)(C)O)c2cc1OC
How it was run: as §1

gefitinib = compound: COc1cc2ncnc(Nc3ccc(F)c(Cl)c3)c2cc1OCCCN1CCOCC1 [gefitinib]
How it was run: as §1

[6] = compound: COc1cccc2cc(-c3nc([C@H]4CC[C@H](C(=O)O)CC4)n4ncnc(N)c34)[nH]c12
How it was run: as §1

lapatinib = compound: CS(=O)(=O)CCNCc1ccc(-c2ccc3ncnc(Nc4ccc(OCc5cccc(F)c5)c(Cl)c4)c3c2)o1 [lapatinib]
How it was run: as §1

pictilisib = compound: CS(=O)(=O)N1CCN(Cc2cc3nc(-c4cccc5[nH]ncc45)nc(N4CCOCC4)c3s2)CC1 [pictilisib]
How it was run: as §1

Measured: log2 fold change

MTHFD2 (UniProt P13995)
inactive: saracatinib 0.007 | sotrastaurin -0.009 | alvocidib 0.029 | Tubastatin A -0.043 | [1] 0.047 | defactinib 0.005 | rucaparib -0.052 | [2] -0.026 | encorafenib 0 | [3] 0.034 | [4] 0.001 | filanesib -0.106 | zotarolimus -0.036 | idasanutlin -0.031 | alisertib -0.064 | [5] -0.014 | gefitinib 0.005 | [6] 0.023 | lapatinib -0.02 | pictilisib 0.007

MYO1C (UniProt O00159)
inactive: saracatinib -0.075 | sotrastaurin -0.141 | alvocidib 0.096 | Tubastatin A 0.036 | [1] 0.01 | defactinib 0.059 | rucaparib 0.208 | [2] 0.077 | encorafenib 0.209 | [3] -0.022 | [4] 0.138 | filanesib 0.174 | zotarolimus 0.086 | idasanutlin 0.045 | alisertib -0.009 | [5] -0.05 | gefitinib 0.001 | [6] -0.128 | lapatinib -0.062 | pictilisib -0.007

MTPN (UniProt P58546)
inactive: saracatinib -0.166 | sotrastaurin -0.023 | alvocidib -0.072 | Tubastatin A 0.117 | [1] 0.066 | defactinib -0.098 | rucaparib -0.005 | [2] 0 | encorafenib -0.051 | [3] 0.065 | [4] 0.05 | filanesib 0.098 | zotarolimus 0.074 | idasanutlin 0.004 | alisertib -0.145 | [5] -0.051 | gefitinib 0.034 | [6] -0.003 | lapatinib -0.062 | pictilisib -0.035

MYDGF (UniProt Q969H8)
inactive: saracatinib 0.077 | sotrastaurin 0.058 | alvocidib 0.026 | Tubastatin A -0.05 | [1] -0.02 | defactinib -0.006 | rucaparib -0.004 | [2] -0.038 | encorafenib -0.003 | [3] 0.033 | [4] -0.04 | filanesib -0.038 | zotarolimus -0.042 | idasanutlin 0.002 | alisertib -0.044 | [5] -0.006 | gefitinib 0.022 | [6] 0.06 | lapatinib -0.024 | pictilisib 0

MTDH (UniProt Q86UE4)
inactive: saracatinib 0.008 | sotrastaurin 0.024 | alvocidib 0.295 | Tubastatin A 0.028 | [1] 0 | defactinib 0.399 | rucaparib 0.348 | [2] 0.061 | encorafenib 0.105 | [3] 0.07 | [4] -0.029 | filanesib 0.398 | zotarolimus -0.049 | idasanutlin 0.171 | alisertib -0.041 | [5] -0.069 | gefitinib -0.018 | [6] -0.142 | lapatinib 0.172 | pictilisib -0.022

MTFR2 (UniProt Q6P444)
inactive: saracatinib 0.021 | sotrastaurin -0.012 | alvocidib -0.019 | Tubastatin A 0.022 | [1] -0.051 | defactinib -0.04 | rucaparib -0.008 | [2] -0.068 | encorafenib -0.033 | [3] -0.028 | [4] -0.01 | filanesib -0.076 | zotarolimus -0.015 | idasanutlin -0.151 | alisertib -0.288 | [5] -0.028 | gefitinib -0.022 | [6] 0.071 | lapatinib -0.308

Reprinted from above (2 entries):
MTDH (UniProt Q86UE4)
inactive: saracatinib 0.008 | sotrastaurin 0.024 | alvocidib 0.295 | Tubastatin A 0.028 | [1] 0 | defactinib 0.399 | rucaparib 0.348 | [2] 0.061 | encorafenib 0.105 | [3] 0.07 | [4] -0.029 | filanesib 0.398 | zotarolimus -0.049 | idasanutlin 0.171 | alisertib -0.041 | [5] -0.069 | gefitinib -0.018 | [6] -0.142 | lapatinib 0.172 | pictilisib -0.022

MTFR2 (UniProt Q6P444)
inactive: saracatinib 0.021 | sotrastaurin -0.012 | alvocidib -0.019 | Tubastatin A 0.022 | [1] -0.051 | defactinib -0.04 | rucaparib -0.008 | [2] -0.068 | encorafenib -0.033 | [3] -0.028 | [4] -0.01 | filanesib -0.076 | zotarolimus -0.015 | idasanutlin -0.151 | alisertib -0.288 | [5] -0.028 | gefitinib -0.022 | [6] 0.071 | lapatinib -0.308

More results:

MUC1, A0A087WWM1
inactive: saracatinib 0.029 | sotrastaurin -0.03 | alvocidib -0.188 | Tubastatin A -0.099 | [1] -0.123 | defactinib 0.074 | rucaparib -0.018 | [2] 0.022 | encorafenib -0.061 | [3] 0.139 | [4] -0.089 | filanesib 0.078 | zotarolimus 0.005 | idasanutlin 0.022 | alisertib -0.035 | [5] 0.013 | gefitinib 0.083 | [6] 0.298 | lapatinib -0.003 | pictilisib 0.128

MRPS18A isoform 2 (UniProt Q9NVS2)
inactive: saracatinib -0.28 | sotrastaurin 0 | alvocidib 0.071 | Tubastatin A 0.106 | [1] -0.009 | defactinib 0.189 | rucaparib 0.167 | [2] 0.054 | encorafenib 0.111 | [3] -0.03 | [4] -0.043 | filanesib 0.174 | zotarolimus 0.137 | idasanutlin -0.034 | alisertib -0.159 | [5] 0.045 | gefitinib -0.015 | [6] -0.066 | lapatinib -0.001 | pictilisib 0.036

MRPS36 (UniProt P82909)
inactive: saracatinib -0.083 | sotrastaurin 0.024 | alvocidib 0.016 | Tubastatin A -0.007 | [1] -0.026 | defactinib 0.019 | rucaparib 0.01 | [2] -0.026 | encorafenib -0.102 | [3] 0.019 | [4] -0.012 | filanesib -0.024 | zotarolimus -0.021 | idasanutlin 0.037 | alisertib -0.137 | [5] -0.002 | gefitinib -0.012 | [6] 0.026 | lapatinib -0.024 | pictilisib -0.019

MRRF (UniProt Q96E11)
inactive: saracatinib 0.025 | sotrastaurin -0.015 | alvocidib -0.031 | Tubastatin A 0.019 | [1] 0.033 | defactinib -0.02 | rucaparib -0.069 | [2] 0 | encorafenib 0.03 | [3] -0.001 | [4] -0.016 | filanesib 0.021 | zotarolimus 0.026 | idasanutlin -0.053 | alisertib -0.017 | [5] 0.066 | gefitinib 0.042 | [6] -0.001 | lapatinib -0.007 | pictilisib -0.004

MTMR2 (UniProt Q13614)
inactive: saracatinib 0.028 | sotrastaurin 0.012 | alvocidib -0.063 | Tubastatin A 0.004 | [1] -0.003 | defactinib -0.061 | rucaparib -0.035 | [2] -0.017 | encorafenib 0.01 | [3] 0.014 | [4] -0.074 | filanesib -0.005 | zotarolimus 0.018 | idasanutlin -0.032 | alisertib 0.019 | [5] -0.026 | gefitinib 0.051 | [6] 0.09 | lapatinib 0.042 | pictilisib 0.052

MYADM (UniProt Q96S97)
inactive: saracatinib -0.011 | sotrastaurin -0.143 | alvocidib 0 | Tubastatin A 0.064 | [1] -0.028 | defactinib 0.004 | rucaparib -0.002 | [2] -0.054 | encorafenib 0.025 | [3] -0.064 | [4] 0.082 | filanesib -0.113 | zotarolimus -0.012 | idasanutlin -0.002 | alisertib -0.011 | [5] -0.067 | gefitinib -0.021 | [6] -0.128 | lapatinib 0.082 | pictilisib -0.132

MTR (UniProt Q99707)
inactive: saracatinib -0.109 | sotrastaurin -0.042 | alvocidib 0.1 | Tubastatin A 0.096 | [1] 0.01 | defactinib 0.033 | rucaparib 0.268 | [2] 0.059 | encorafenib 0.099 | [3] -0.051 | [4] -0.012 | filanesib 0.129 | zotarolimus 0.097 | idasanutlin 0.042 | alisertib -0.036 | [5] -0.037 | gefitinib 0.077 | [6] -0.045 | lapatinib -0.006 | pictilisib -0.043

MT-CYB (UniProt P00156)
inactive: saracatinib 0.036 | sotrastaurin 0.057 | alvocidib -0.042 | Tubastatin A -0.02 | [1] 0.062 | defactinib 0.023 | rucaparib -0.137 | [2] -0.017 | encorafenib 0.042 | [3] 0.063 | [4] -0.052 | filanesib -0.142 | zotarolimus -0.003 | idasanutlin -0.101 | alisertib 0.055 | [5] -0.125 | gefitinib 0.001 | [6] 0.115 | lapatinib 0.022 | pictilisib 0.026

MYO1D (UniProt O94832)
inactive: saracatinib -0.008 | sotrastaurin 0.011 | alvocidib 0.099 | Tubastatin A 0.094 | [1] -0.021 | defactinib 0.061 | rucaparib 0.229 | [2] 0.048 | encorafenib 0.017 | [3] 0.024 | [4] -0.019 | filanesib 0.132 | zotarolimus 0.039 | idasanutlin 0.059 | alisertib 0 | [5] -0.025 | gefitinib 0.038 | [6] -0.071 | lapatinib -0.035 | pictilisib -0.073
